Measured data: PubChem BioAssay AID652243 (Drosophila RNAi Screening Center, 2013)
The deposit covers about 24,000 reagents; this is a random part of those with a known target gene and a result. Over the whole deposit, 246 (1%) got an active call. 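Plates not normalised; calls are printed but the firefly/Renilla ratio behind them is not deposited; fold cut for lowering reported inconsistently.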 The raw values are shown without normalisation. A plus sign joins genes that one reagent is predicted to hit. Not stated in the record: the amount of reagent.

Assay: 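Fly regulators of androgen-dependent reporter output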 (primary screen)
System: Drosophila S2R+ cells
Reagent: long dsRNA against Drosophila genes
Timing: 72 h (48 h, then 24 h hormone)
Treatment: synthetic androgen R1881 at 10 nM for 24 h
Detection: 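Firefly light from an androgen-responsive reporter and Renilla control light per well, raw and unnormalised, for each of two replicates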
Scale: firefly reporter light: higher = more light from androgen-responsive reporter; Renilla control light: higher = more constitutive control signal (cell number, transfection)
Call rule: 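Across duplicate plates, a knock-down whose log firefly/Renilla ratio shifted a set fold down or up from the GFP/LacZ control mean was a hit; the downward cut appears as both 1.5 and 3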
Calls: active = hit: reporter lowered or raised; inactive = no hit

Target gene	DRSC id	firefly reporter light, replicate 1	firefly reporter light, replicate 2	Renilla control light, replicate 1	Renilla control light, replicate 2	activity call
Osi11 (Osiris 11)	DRSC12282	64446	81246	1.77e6	1.43e6	inactive
Svil (Supervillin)	DRSC08296	7.98e5	5.17e5	1.54e6	1.63e6	inactive
Svil (Supervillin)	DRSC08332	56096	64178	1.01e6	9.51e5	inactive
Svil (Supervillin)	DRSC08494	60035	43045	1.08e6	9.37e5	inactive
Svil (Supervillin)	DRSC24435	7.71e5	8.40e5	1.12e6	1.17e6	inactive
Svil (Supervillin)	DRSC25804	2.37e5	2.67e5	4.43e5	4.02e5	inactive
CG6569	DRSC16067	2.76e5	2.71e5	3.20e6	3.28e6	inactive
dls (daedalus on 3)	DRSC37821	8.35e5	7.53e5	1.55e6	2.10e6	inactive
Tsen34 (tRNA splicing endonuclease subunit 34)	DRSC22932	3.90e5	8.17e5	9.43e5	1.76e6	inactive
CG18649	DRSC10334	2.66e5	1.75e5	2.18e6	1.95e6	inactive
CG1738	DRSC19772	3.00e5	3.56e5	2.93e6	3.34e6	inactive
CG1738	DRSC29312	9.11e5	7.36e5	1.35e6	1.48e6	inactive
cato (cousin of atonal)	DRSC07589	78733	1.28e5	8.64e5	8.64e5	inactive
Ugt303B3 (UDP-glycosyltransferase family 303 member B3)	DRSC14199	1.52e5	1.79e5	3.08e6	2.95e6	inactive
Ugt303B3 (UDP-glycosyltransferase family 303 member B3)	DRSC26386	2.88e5	3.69e5	1.15e6	1.03e6	inactive
Ugt303B3 (UDP-glycosyltransferase family 303 member B3)	DRSC39073	1.10e6	8.68e5	1.78e6	1.79e6	inactive
mts (microtubule star)	DRSC03574	5.09e5	7.16e5	2.67e6	2.35e6	active
mts (microtubule star)	DRSC36626					inactive
Pgant6 (Polypeptide N-Acetylgalactosaminyltransferase 6)	DRSC08552	1.10e6	1.19e6	2.34e6	2.45e6	inactive
Pgant6 (Polypeptide N-Acetylgalactosaminyltransferase 6)	DRSC26927	4.04e5	3.09e5	5.83e5	3.19e5	inactive
Met75Ca + Met75Cb	DRSC09549	3.43e5	3.45e5	1.04e6	9.01e5	inactive
Met75Ca + Met75Cb	DRSC11221	3.10e5	2.50e5	3.19e6	3.06e6	inactive
Mnr (Membrane-bound Notch regulator)	DRSC20549	1.98e5	1.33e5	7.51e5	5.11e5	inactive
Mnr (Membrane-bound Notch regulator)	DRSC20550	5.73e5	5.60e5	1.77e6	1.75e6	inactive
Mnr (Membrane-bound Notch regulator)	DRSC22441	4.98e5	7.83e5	9.72e5	1.33e6	inactive
ValRS-m (Valyl-tRNA synthetase, mitochondrial)	DRSC10535	2.58e5	2.59e5	2.71e6	2.20e6	inactive
Rassf (Ras association family member)	DRSC15612	54899	1.15e5	5.36e5	5.58e5	inactive
Rassf (Ras association family member)	DRSC28891	3.59e5	3.06e5	1.48e6	9.58e5	inactive
Adgf-E (Adenosine deaminase-related growth factor E)	DRSC05973	43910	87852	1.19e6	1.19e6	inactive
Adgf-E (Adenosine deaminase-related growth factor E)	DRSC27287	5.22e5	5.78e5	8.16e5	9.48e5	inactive
CG34005	DRSC38865	1.11e6	1.02e6	2.24e6	1.77e6	inactive
CG13299	DRSC09973	1.85e5	1.79e5	2.02e6	2.95e6	inactive
ste24a (prenyl protease type I)	DRSC07314	7.99e5	9.24e5	1.56e6	1.18e6	inactive
ste24a (prenyl protease type I)	DRSC26491	1.20e5	73940	2.03e5	1.65e5	inactive
Rsbp15 (Radial spoke binding protein 15)	DRSC14176	1.58e5	1.83e5	2.57e6	2.61e6	inactive
Rsbp15 (Radial spoke binding protein 15)	DRSC29051	4.90e5	6.58e5	1.62e6	1.65e6	inactive
CG32485	DRSC22666	7.20e5	5.96e5	2.03e6	1.51e6	inactive
GstD7 (Glutathione S transferase D7)	DRSC16688	7.07e5	6.05e5	2.20e6	1.50e6	inactive
GstD7 (Glutathione S transferase D7)	DRSC29907	4.39e5	2.79e5	1.21e6	8.46e5	inactive
Sgs4 (Salivary gland secretion 4)	DRSC18715	4.37e5	4.53e5	3.55e6	2.85e6	inactive
Sgs4 (Salivary gland secretion 4)	DRSC28964	6.60e5	3.10e5	1.22e6	6.14e5	inactive

Reformatted: 2 of the entries above
mts (microtubule star) [DRSC03574]: firefly reporter light, replicate 1 = 5.09e5; firefly reporter light, replicate 2 = 7.16e5; Renilla control light, replicate 1 = 2.67e6; Renilla control light, replicate 2 = 2.35e6; activity call = active
mts (microtubule star) [DRSC36626]: activity call = inactive
